Experimental data: PubChem BioAssay AID686943 (Drosophila RNAi Screening Center, 2013)
In all, the deposit lists about 23,000 reagents; below is an unselected part of those that have a named target and a result. 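Extra replicates exist only for a retested subset of genes; insulin dose and duration not given; both raised and lowered dpERK matter.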 Reagents against one gene are numbered here. A plus sign joins genes that one reagent is predicted to hit. Further read-outs or replicates are left out here. The record does not give: the amount of reagent, the time to read-out.

- Aim: 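Search across the genome for regulators of signalling from receptor tyrosine kinase to ERK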 (primary screen)
- Cells: Drosophila S2R+ haemocyte-like cells expressing YFP-tagged ERK (Rolled)
- Reagent: long dsRNA against Drosophila genes
- Challenge: insulin stimulation versus unstimulated cells; dose and duration not given
- Detection: 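Per-plate z-scores of phospho-ERK immunostaining normalised to YFP-tagged ERK, measured with and without insulin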
- Reading the numbers: replicate 1, z-score of dpERK with insulin and replicate 2, z-score of dpERK with insulin: higher = more active ERK per ERK-YFP after insulin

Cip4 #1 showed replicate 1, z-score of dpERK with insulin 0.58; replicate 2, z-score of dpERK with insulin -0.32. Cip4 #2 gave replicate 1, z-score of dpERK with insulin -0.17; replicate 2, z-score of dpERK with insulin 0.57. Silencing of Cip4 #3 resulted in: replicate 1, z-score of dpERK with insulin -3.88; replicate 2, z-score of dpERK with insulin 0.57. Edem1 showed replicate 1, z-score of dpERK with insulin -0.55; replicate 2, z-score of dpERK with insulin 0.74. Silencing of Tim10 + CG42497 gave: replicate 1, z-score of dpERK with insulin -0.84; replicate 2, z-score of dpERK with insulin 1.52. Depletion of stck came out at: replicate 1, z-score of dpERK with insulin 0.24; replicate 2, z-score of dpERK with insulin -0.66.

Against CG9663, the entry reads replicate 1, z-score of dpERK with insulin 0.6; replicate 2, z-score of dpERK with insulin 0.11. For CG12643, the values are replicate 1, z-score of dpERK with insulin 0.16; replicate 2, z-score of dpERK with insulin 0.1. Knock-down of CG31862 gave: replicate 1, z-score of dpERK with insulin 0.13; replicate 2, z-score of dpERK with insulin 0.12. Knock-down of CG14007 came out at: replicate 1, z-score of dpERK with insulin -0.57; replicate 2, z-score of dpERK with insulin -0.99. Depletion of Theg gave: replicate 1, z-score of dpERK with insulin 0.42; replicate 2, z-score of dpERK with insulin -0.18. With knock-down of CG12942 the results were replicate 1, z-score of dpERK with insulin -0.1; replicate 2, z-score of dpERK with insulin -0.02.

Silencing of Dap160 #1 came out at: replicate 1, z-score of dpERK with insulin -1.05; replicate 2, z-score of dpERK with insulin -0.72. Against Dap160 #2, the values are replicate 1, z-score of dpERK with insulin -0.31; replicate 2, z-score of dpERK with insulin -0.24. With knock-down of CG1138 the results were replicate 1, z-score of dpERK with insulin 0.54; replicate 2, z-score of dpERK with insulin -0.07. CG33635 gave replicate 1, z-score of dpERK with insulin -0.17; replicate 2, z-score of dpERK with insulin 0.76. After knock-down of Gtpx #1, the record shows replicate 1, z-score of dpERK with insulin -0.7; replicate 2, z-score of dpERK with insulin -0.09. With knock-down of Gtpx #2, the screen gave replicate 1, z-score of dpERK with insulin 0.43; replicate 2, z-score of dpERK with insulin -0.21.

Orai #1 scored replicate 1, z-score of dpERK with insulin 0.74; replicate 2, z-score of dpERK with insulin 0.66. Orai #2 showed replicate 1, z-score of dpERK with insulin 1; replicate 2, z-score of dpERK with insulin 0.75. fidipidine scored replicate 1, z-score of dpERK with insulin -1.97; replicate 2, z-score of dpERK with insulin -1.89. With knock-down of frac, the screen gave replicate 1, z-score of dpERK with insulin 0.05; replicate 2, z-score of dpERK with insulin 0.22. With knock-down of jp #1 the results were replicate 1, z-score of dpERK with insulin 0.16; replicate 2, z-score of dpERK with insulin 0.26. jp #2 gave replicate 1, z-score of dpERK with insulin 0.53; replicate 2, z-score of dpERK with insulin 0.04.

Knock-down of CenB1A gave: replicate 1, z-score of dpERK with insulin 1.87; replicate 2, z-score of dpERK with insulin -0.29. Against CG31248 the deposit lists replicate 1, z-score of dpERK with insulin 0.23; replicate 2, z-score of dpERK with insulin 0.78. After knock-down of CG8117, the record shows replicate 1, z-score of dpERK with insulin -0.42; replicate 2, z-score of dpERK with insulin -1.27. For Jhbp12 the deposit lists replicate 1, z-score of dpERK with insulin -0.37; replicate 2, z-score of dpERK with insulin 0.49. AgmNAT scored replicate 1, z-score of dpERK with insulin 0.31; replicate 2, z-score of dpERK with insulin 0.28. For Syx13 the deposit lists replicate 1, z-score of dpERK with insulin -0.34; replicate 2, z-score of dpERK with insulin 0.46.

CG2854 scored replicate 1, z-score of dpERK with insulin 0.03; replicate 2, z-score of dpERK with insulin 0.71.

Targets listed so far whose gene name starts with J or j:
jp #1 — replicate 1, z-score of dpERK with insulin = 0.16; replicate 2, z-score of dpERK with insulin = 0.26
jp #2 — replicate 1, z-score of dpERK with insulin = 0.53; replicate 2, z-score of dpERK with insulin = 0.04
Jhbp12 — replicate 1, z-score of dpERK with insulin = -0.37; replicate 2, z-score of dpERK with insulin = 0.49
